This test addresses SpoVD-FLAG3 (Clostridioides difficile). Briefly: co-IP; FLAG-tagged bait from sporulating C. difficile (12 h on 70:30 plates), cells cross-linked with 0.25% PFA, lysate solubilised with 0.5% DDM in 150 mM NaCl, 50 mM Tris-HCl pH 7.5, anti-FLAG M2 magnetic resin, eluted with 3x FLAG peptide, Western blot; SpoVD-FLAG3 also in a ∆spoVD∆pbp3 background. (Immunoblotting shows a protein as a band on a membrane.)

These are yes or no findings as the source states them, for the method shown. Binding seen in cells or lysates may run through a third protein.

For the substance “SpoIID, endogenous (from UniProt Q18CL6)”, the binding result was “no binding”.

(Values after article PMC12713402.)
